These results are taken from paper PMC12667520, “SP3 and DEP1 Orchestrate Panicle Architecture by Jointly Regulating APO2 Expression in Rice”.

For some of these results: Negatives hold for the conditions tested. For some of these results: At least one verdict was read from the data and is not stated in words by the source. Protein sequences can lack the tags named with them. Construct, isoform or probe ends are uncertain for at least one entry. For some of these results: A weaker result is weaker than the reference pair of the same experiment.

One data set concerns T1, SP3 (Dof15).
T1 sequence (limits assumed): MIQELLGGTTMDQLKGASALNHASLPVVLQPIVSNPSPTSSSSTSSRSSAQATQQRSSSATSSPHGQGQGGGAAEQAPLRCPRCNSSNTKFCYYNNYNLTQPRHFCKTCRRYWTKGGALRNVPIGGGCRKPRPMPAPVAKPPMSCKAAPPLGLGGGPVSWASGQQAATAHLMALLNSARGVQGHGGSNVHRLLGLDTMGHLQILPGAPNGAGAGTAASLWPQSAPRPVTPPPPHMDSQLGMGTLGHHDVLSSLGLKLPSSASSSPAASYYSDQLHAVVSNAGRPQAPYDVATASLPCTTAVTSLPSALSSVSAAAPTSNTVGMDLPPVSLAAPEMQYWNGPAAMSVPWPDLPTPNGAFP
In words: EMSA. The following applies: DEP1-MBP present; LightShift Chemiluminescent EMSA Kit (Thermo), manufacturer's instructions; pH and temperature not stated; recombinant protein; protein details: GST (pGEX-6p); label: biotin. On the technique in general: A gel shift assay detects complexes by their altered migration in electrophoresis.
As to “ACGCATGCAGGAGTATCTTTTTTCTTCGGAAGAGGAACAGTGAC (double strand) [Bio-Probe (APO2 promoter)]”, the binding result is reported as “binds more weakly”.

The subject of the next data set is T1, SP3 (Dof15). Briefly: competition with a labelled probe. Particulars: unlabeled competitor vs biotin wild-type probe (EMSA); LightShift Chemiluminescent EMSA Kit (Thermo), manufacturer's instructions; pH and temperature not …; recombinant protein; protein details: GST (pGEX-6p).
Turning to “ACGCATGCAGGAGTACCTTTTTTCTTCGGAAGAGGAACAG (double strand) [Probe-m1]”, the binding result is given as “binds”.
Consider “ACGCATGCAGGAGTATATTTTTTCTTCGGAAGAGGAACAG (double strand) [Probe-m2]”, for which the binding result is “no binding”.
With “ACGCATGCAGGAGTATCGTTTTTCTTCGGAAGAGGAACAG (double strand) [Probe-m3]”, the binding result is listed as “no binding”.
On the same count and under the same terms, as for “ACGCATGCAGGAGTATCTGTTTTCTTCGGAAGAGGAACAG (double strand) [Probe-m4]”, the entry is “no binding”.
Still for that read-out and setting: the entry for “ACGCATGCAGGAGTATCTTGTTTCTTCGGAAGAGGAACAG (double strand) [Probe-m5]” is “no binding”; for “ACGCATGCAGGAGTATCTTTGTTCTTCGGAAGAGGAACAG (double strand) [Probe-m6]” it is “no binding”.
